Source: patent US20160214974A1 (SYNGENTA PARTICIPATIONS AG, priority 2013, published 2016)
Some entries share one result that the patent states for a list of compounds. For some of these results: At least one compound was matched to its structure with a doubt left.

Legend:
[1] = tested on: FRC-P strain of Myzus persicae (Neonicotinoid resistant); assay: Control of neonicotinoid resistant green peach aphid (Example B4 a); type: in vivo; conditions: for resistance factor (RF80): FRC-P resistant vs susceptible strain of Myzus persicae, concentration for 80% mortality
[2] = tested on: Q-biotype strain of Bemisia tabaci (Neonicotinoid resistant); assay: Control of neonicotinoid and pyrethroid resistant tobacco whitefly (Example B4 b); type: in vivo; conditions: for control of the Q-biotype (Neonicotinoid resistant) strain of Bemisia tabaci: 200 ppm; for resistance factor: Q-biotype resistant vs susceptible strain of Bemisia tabaci

## C=C(Cl)CN1[C@@H]2C=C[C@H]1C[C@](C(N)=S)(c1cncc(C#N)c1)C2 [E.012, (1 S,5R)-8-(2-chloroallyl)-3-(5-cyano-3-pyridyl)-8-azabicyclo[3.2.1]oct-6-ene-3-carbothioamide]
[1]; 200 ppm
  control of the FRC-P (Neonicotinoid resistant) strain of Myzus persicae: at least 80%

## N#Cc1cncc([C@]2(C(N)=S)C[C@H]3C=C[C@@H](C2)N3CCCC(F)(F)F)c1 [E.064]
[2]
  control of the Q-biotype (Neonicotinoid resistant) strain of Bemisia tabaci: at least 80%

## NC(=S)[C@@]1(c2cncc(Cl)c2)C[C@H]2C=C[C@@H](C1)N2CCCC(F)(F)F [E.067]
[2]
  control of the Q-biotype (Neonicotinoid resistant) strain of Bemisia tabaci: at least 80%

## O=[N+]([O-])NC1=NCCN1Cc1ccc(Cl)nc1 [Imidacloprid, reference compound]
[2]
  resistance factor: > 64
[1]
  resistance factor (RF80): > 64

## N#C/N=C1\SCCN1Cc1ccc(Cl)nc1 [Thiacloprid, reference compound]
[2]
  resistance factor: > 64
[1]
  resistance factor (RF80): > 64
